Experimental data as given in patent publication US20180320217A1, “METHODS FOR SAMPLING AND MEASURING ORAL LAVAGE PROTEINS” (The Procter & Gamble Company, priority 2017, published 2018).

B1: Lithostathine-1-alpha (protein, UniProt P05451 23-166, looked up)
Lithostathine-1-alpha: QEAQTELPQARISCPEGTNAYRSYCYYFNEDRETWVDADLYCQNMNSGNLVSVLTQAEGAFVASLIKESGTDDFNVWIGLHDPKKNRRWHWSSGSLVSYKSWGIGAPSSVNPGYCVSLTSSTGFQKWKDVPCEDKFSFVCKFKN
B2: Mitogen-activated protein kinase 11 (protein, UniProt Q15759 1-364, looked up)
Mitogen-activated protein …: MSGPRAGFYRQELNKTVWEVPQRLQGLRPVGSGAYGSVCSAYDARLRQKVAVKKLSRPFQSLIHARRTYRELRLLKHLKHENVIGLLDVFTPATSIEDFSEVYLVTTLMGADLNNIVKCQALSDEHVQFLVYQLLRGLKYIHSAGIIHRDLKPSNVAVNEDCELRILDFGLARQADEEMTGYVATRWYRAPEIMLNWMHYNQTVDIWSVGCIMAELLQGKALFPGSDYIDQLKRIMEVVGTPSPEVLAKISSEHARTYIQSLPPMPQKDLSSIFRGANPLAIDLLGRMLVLDSDQRVSAAEALAHAYFSQYHDPEDEPEAEPYDESVEAKERTLEEWKELTYQEVLSFKPPEPPKPPGSLEIEQ
B3: Matrilin-2 (protein, UniProt O00339 24-956, looked up)
Matrilin-2: RERSRGRSISRGRHARTHPQTALLESSCENKRADLVFIIDSSRSVNTHDYAKVKEFIVDILQFLDIGPDVTRVGLLQYGSTVKNEFSLKTFKRKSEVERAVKRMRHLSTGTMTGLAIQYALNIAFSEAEGARPLRENVPRVIMIVTDGRPQDSVAEVAAKARDTGILIFAIGVGQVDFNTLKSIGSEPHEDHVFLVANFSQIETLTSVFQKKLCTAHMCSTLEHNCAHFCINIPGSYVCRCKQGYILNSDQTTCRIQDLCAMEDHNCEQLCVNVPGSFVCQCYSGYALAEDGKRCVAVDYCASENHGCEHECVNADGSYLCQCHEGFALNPDKKTCTKIDYCASSNHGCQHECVNTDDSYSCHCLKGFTLNPDKKTCRRINYCALNKPGCEHECVNMEESYYCRCHRGYTLDPNGKTCSRVDHCAQQDHGCEQLCLNTEDSFVCQCSEGFLINEDLKTCSRVDYCLLSDHGCEYSCVNMDRSFACQCPEGHVLRSDGKTCAKLDSCALGDHGCEHSCVSSEDSFVCQCFEGYILREDGKTCRRKDVCQAIDHGCEHICVNSDDSYTCECLEGFRLAEDGKRCRRKDVCKSTHHGCEHICVNNGNSYICKCSEGFVLAEDGRRCKKCTEGPIDLVFVIDGSKSLGEENFEVVKQFVTGIIDSLTISPKAARVGLLQYSTQVHTEFTLRNFNSAKDMKKAVAHMKYMGKGSMTGLALKHMFERSFTQGEGARPLSTRVPRAAIVFTDGRAQDDVSEWASKAKANGITMYAVGVGKAIEEELQEIASEPTNKHLFYAEDFSTMDEISEKLKKGICEALEDSDGRQDSPAGELPKTVQQPTESEPVTINIQDLLSCSNFAVQHRYLFEEDNLLRSTQKLSHSTKPSGSPLEEKHDQCKCENLIMFQNLANEEVRKLTQRLEEMTQRMEALENRLRYR
B4: Macrophage metalloelastase (protein, UniProt P39900 106-470, looked up)
Macrophage metalloelastase: GPVWRKHYITYRINNYTPDMNREDVDYAIRKAFQVWSNVTPLKFSKINTGMADILVVFARGAHGDFHAFDGKGGILAHAFGPGSGIGGDAHFDEDEFWTTHSGGTNLFLTAVHEIGHSLGLGHSSDPKAVMFPTYKYVDINTFRLSADDIRGIQSLYGDPKENQRLPNPDNSEPALCDPNLSFDAVTTVGNKIFFFKDRFFWLKVSERPKTSVNLISSLWPTLPSGIEAAYEIEARNQVFLFKDDKYWLISNLRPEPNYPKSIHSFGFPNFVKKIDAAVFNPRFYRTYFFVDNQYWRYDERRQMMDPGYPKLITKNFQGIGPKIDAVFYSKNKYYYFFQGSNQFEYDFLLQRITKTLKSNSWFGC
B5: Layilin (protein, UniProt Q6UX15 22-382, looked up)
Layilin: ATGRLLSASDLDLRGGQPVCRGGTQRPCYKVIYFHDTSRRLNFEEAKEACRRDGGQLVSIESEDEQKLIEKFIENLLPSDGDFWIGLRRREEKQSNSTACQDLYAWTDGSISQFRNWYVDEPSCGSEVCVVMYHQPSAPAGIGGPYMFQWNDDRCNMKNNFICKYSDEKPAVPSREAEGEETELTTPVLPEETQEEDAKKTFKESREAALNLAYILIPSIPLLLLLVVTTVVCWVWICRKRKREQPDPSTKKQHTIWPSPHQGNSPDLEVYNVIRKQSEADLAETRPDLKNISFRVCSGEATPDDMSCDYDNMAVNPSESGFVTLVSVESGFVTNDIYEFSPDQMGRSKESGWVENEIYGY
B6: ADP-ribosyl cyclase/cyclic ADP-ribose hydrolase 2 (protein, UniProt Q10588 33-293, looked up)
ADP-ribosyl cyclase/cyclic …: RWRGEGTSAHLRDIFLGRCAEYRALLSPEQRNKNCTAIWEAFKVALDKDPCSVLPSDYDLFINLSRHSIPRDKSLFWENSHLLVNSFADNTRRFMPLSDVLYGRVADFLSWCRQKNDSGLDYQSCPTSEDCENNPVDSFWKRASIQYSKDSSGVIHVMLNGSEPTGAYPIKGFFADYEIPNLQKEKITRIEIWVMHEIGGPNVESCGEGSMKVLEKRLKDMGFQYSCINDYRPVKLLQCVDHSTHPDCALKSAAAATQRKA
B7: Macrophage colony-stimulating factor 1 (protein, UniProt P09603 33-554, looked up)
Macrophage colony-stimulating …: EEVSEYCSHMIGSGHLQSLQRLIDSQMETSCQITFEFVDQEQLKDPVCYLKKAFLLVQDIMEDTMRFRDNTPNAIAIVQLQELSLRLKSCFTKDYEEHDKACVRTFYETPLQLLEKVKNVFNETKNLLDKDWNIFSKNCNNSFAECSSQDVVTKPDCNCLYPKAIPSSDPASVSPHQPLAPSMAPVAGLTWEDSEGTEGSSLLPGEQPLHTVDPGSAKQRPPRSTCQSFEPPETPVVKDSTIGGSPQPRPSVGAFNPGMEDILDSAMGTNWVPEEASGEASEIPVPQGTELSPSRPGGGSMQTEPARPSNFLSASSPLPASAKGQQPADVTGTALPRVGPVRPTGQDWNHTPQKTDHPSALLRDPPEPGSPRISSLRPQGLSNPSTLSAQPQLSRSHSSGSVLPLGELEGRRSTRDRRSPAEPEGGPASEGAARPLPRFNSVPLTDTGHERQSEGSFSPQLQESVFHLLVPSVILVLLAVGGLLFYRWRRRSHQEPQRADSPLEQPEGSPLTQDDRQVELPV
B8: Muellerian-inhibiting factor (protein, UniProt P03971 452-560, looked up)
Muellerian-inhibiting factor: SAGATAADGPCALRELSVDLRAERSVLIPETYQANNCQGVCGWPQSDRNPRYGNHVVLLLKMQVRGAALARPPCCVPTAYAGKLLISLSEERISAHHVPNMVATECGCR
B9: Legumain (protein, UniProt Q99538 18-323, looked up)
Legumain: VPIDDPEDGGKHWVVIVAGSNGWYNYRHQADACHAYQIIHRNGIPDEQIVVMMYDDIAYSEDNPTPGIVINRPNGTDVYQGVPKDYTGEDVTPQNFLAVLRGDAEAVKGIGSGKVLKSGPQDHVFIYFTDHGSTGILVFPNEDLHVKDLNETIHYMYKHKMYRKMVFYIEACESGSMMNHLPDNINVYATTAANPRESSYACYYDEKRSTYLGDWYSVNWMEDSDVEDLTKETLHKQYHLVKSHTNTSHVMQYGNKTISTMKVMQFQGMKRKASSPVPLPPVTHLDLTPSPDVPLTIMKRKLMNTN
B10: Leukemia inhibitory factor receptor (protein, UniProt P42702 45-1097, looked up)
Leukemia inhibitory factor …: QKKGAPHDLKCVTNNLQVWNCSWKAPSGTGRGTDYEVCIENRSRSCYQLEKTSIKIPALSHGDYEITINSLHDFGSSTSKFTLNEQNVSLIPDTPEILNLSADFSTSTLYLKWNDRGSVFPHRSNVIWEIKVLRKESMELVKLVTHNTTLNGKDTLHHWSWASDMPLECAIHFVEIRCYIDNLHFSGLEEWSDWSPVKNISWIPDSQTKVFPQDKVILVGSDITFCCVSQEKVLSALIGHTNCPLIHLDGENVAIKIRNISVSASSGTNVVFTTEDNIFGTVIFAGYPPDTPQQLNCETHDLKEIICSWNPGRVTALVGPRATSYTLVESFSGKYVRLKRAEAPTNESYQLLFQMLPNQEIYNFTLNAHNPLGRSQSTILVNITEKVYPHTPTSFKVKDINSTAVKLSWHLPGNFAKINFLCEIEIKKSNSVQEQRNVTIKGVENSSYLVALDKLNPYTLYTFRIRCSTETFWKWSKWSNKKQHLTTEASPSKGPDTWREWSSDGKNLIIYWKPLPINEANGKILSYNVSCSSDEETQSLSEIPDPQHKAEIRLDKNDYIISVVAKNSVGSSPPSKIASMEIPNDDLKIEQVVGMGKGILLTWHYDPNMTCDYVIKWCNSSRSEPCLMDWRKVPSNSTETVIESDEFRPGIRYNFFLYGCRNQGYQLLRSMIGYIEELAPIVAPNFTVEDTSADSILVKWEDIPVEELRGFLRGYLFYFGKGERDTSKMRVLESGRSDIKVKNITDISQKTLRIADLQGKTSYHLVLRAYTDGGVGPEKSMYVVTKENSVGLIIAILIPVAVAVIVGVVTSILCYRKREWIKETFYPDIPNPENCKALQFQKSVCEGSSALKTLEMNPCTPNNVEVLETRSAFPKIEDTEIISPVAERPEDRSDAEPENHVVVSYCPPIIEEEIPNPAADEAGGTAQVIYIDVQSMYQPQAKPEEEQENDPVGGAGYKPQMHLPINSTVEDIAAEEDLDKTAGYRPQANVNTWNLVSPDSPRSIDSNSEIVSFGSPCSINSRQFLIPPKDEDSPKSNGGGWSFTNFFQNKPND

System: proteins in oral lavage
Assay: Abundance of proteins in human oral lavage (SomaLogic), TABLE 1
Format: in vivo
Settings: for Means (Original Scale) High bleeder BL / Means (Original Scale) High bleeder W4 / Means (Original Scale) Low bleeder BL: abundance in oral lavage; for Means (Original Scale) High bleeder BL: high bleeders (gingivitis); for Means (Original Scale) High bleeder BL / Means (Original Scale) Low bleeder BL: baseline; for Means (Original Scale) High bleeder W4 / Fold Change High bleeder W4 vs High bleeder BL: high bleeders; for Means (Original Scale) High bleeder W4: week 4 of investigative products; for Means (Original Scale) Low bleeder BL: low bleeders (healthy); for Fold Change High bleeder BL vs Low bleeder BL / Fold Change High bleeder W4 vs High bleeder BL: oral lavage; for Fold Change High bleeder BL vs Low bleeder BL: high bleeders vs low bleeders at baseline; for Fold Change High bleeder W4 vs High bleeder BL: week 4 of investigative products vs baseline

Molecule	Means (Original Scale) High bleeder BL	Means (Original Scale) High bleeder W4	Means (Original Scale) Low bleeder BL	Fold Change High bleeder BL vs Low bleeder BL	Fold Change High bleeder W4 vs High bleeder BL
B1	7884	4725	5643	1.81	0.58
B2	239	108	55	3.23	0.58
B3	17458	8756	2992	7.28	0.63
B4	16571	5282	2096	6.43	0.48
B5	635	374	342	1.89	0.61
B6	35309	21260	14521	2.53	0.59
B7	6274	4163	2422	2.61	0.66
B8	1634	1097	671	2.57	0.72
B9	65072	41251	23410	2.73	0.66
B10	1001	562	228	3.76	0.58
